Data taken from article PMC10607372.
No constants are given. Whether binding was seen depends on the method and setting. Some binding calls cover weakened binding; strength is not graded here.

Biological target: T1, fibroblast growth factor 23 (FGF23), recombinant human (human) (UniProt Q9GZV9)
T1 sequence: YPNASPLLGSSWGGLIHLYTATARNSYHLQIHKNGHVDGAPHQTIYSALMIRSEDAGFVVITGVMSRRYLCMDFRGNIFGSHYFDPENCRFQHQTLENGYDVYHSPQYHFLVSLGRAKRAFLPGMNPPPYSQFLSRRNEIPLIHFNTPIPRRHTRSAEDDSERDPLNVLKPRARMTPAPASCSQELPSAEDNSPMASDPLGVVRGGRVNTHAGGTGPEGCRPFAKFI
Test: SPR; array SPRi, stationary (non-fluidic); monoclonal anti-FGF23 antibody (25 ng/mL) bound covalently to a cysteamine monolayer on gold; FGF23 mixed with αKlotho (mass ratio 1:4.23) applied for 10 min, washed with HBS-ES buffer and water, dried, then read; pH 7.4; both purified

binding: binds
B1: αKlotho protein, recombinant human (receptor, UniProt Q9UEF7 34-981)
chain: EPGDGAQTWARFSRPPAPEAAGLFQGTFPDGFLWAVGSAAYQTEGGWQQHGKGASIWDTFTHHPLAPPGDSRNASLPLGAPSPLQPATGDVASDSYNNVFRDTEALRELGVTHYRFSISWARVLPNGSAGVPNREGLRYYRRLLERLRELGVQPVVTLYHWDLPQRLQDAYGGWANRALADHFRDYAELCFRHFGGQVKYWITIDNPYVVAWHGYATGRLAPGIRGSPRLGYLVAHNLLLAHAKVWHLYNTSFRPTQGGQVSIALSSHWINPRRMTDHSIKECQKSLDFVLGWFAKPVFIDGDYPESMKNNLSSILPDFTESEKKFIKGTADFFALCFGPTLSFQLLDPHMKFRQLESPNLRQLLSWIDLEFNHPQIFIVENGWFVSGTTKRDDAKYMYYLKKFIMETLKAIKLDGVDVIGYTAWSLMDGFEWHRGYSIRRGLFYVDFLSQDKMLLPKSSALFYQKLIEKNGFPPLPENQPLEGTFPCDFAWGVVDNYIQVDTTLSQFTDLNVYLWDVHHSKRLIKVDGVVTKKRKSYCVDFAAIQPQIALLQEMHVTHFRFSLDWALILPLGNQSQVNHTILQYYRCMASELVRVNITPVVALWQPMAPNQGLPRLLARQGAWENPYTALAFAEYARLCFQELGHHVKLWITMNEPYTRNMTYSAGHNLLKAHALAWHVYNEKFRHAQNGKISIALQADWIEPACPFSQKDKEVAERVLEFDIGWLAEPIFGSGDYPWVMRDWLNQRNNFLLPYFTEDEKKLIQGTFDFLALSHYTTILVDSEKEDPIKYNDYLEVQEMTDITWLNSPSQVAVVPWGLRKVLNWLKFKYGDLPMYIISNGIDDGLHAEDDQLRVYYMQNYINEALKAHILDGINLCGYFAYSFNDRTAPRFGLYRYAADQFEPKASMKHYRKIIDSNGFPGPETLERFCPEEFTVCTECSFFHTRKS
